Results published in PubChem BioAssay AID1794845 (National Center for Advancing Translational Sciences (NCATS), 2023).
Among all 6,900 compounds or so, fewer than 10 were called active. The call rests on the fitted dose curve; in most records, active means well fitted curve in the direction sought with a large enough effect; inconclusive means small, poorly fitted or top-dose-only effect, or another doubt; inactive means no such curve, though single readings can be large or run the other way. The list shows a part of the results.

Amino acid sequences for entries named in this document (tags omitted). A change or cut given only in a name is not applied to a line headed by its entry.
UniProt C7C422: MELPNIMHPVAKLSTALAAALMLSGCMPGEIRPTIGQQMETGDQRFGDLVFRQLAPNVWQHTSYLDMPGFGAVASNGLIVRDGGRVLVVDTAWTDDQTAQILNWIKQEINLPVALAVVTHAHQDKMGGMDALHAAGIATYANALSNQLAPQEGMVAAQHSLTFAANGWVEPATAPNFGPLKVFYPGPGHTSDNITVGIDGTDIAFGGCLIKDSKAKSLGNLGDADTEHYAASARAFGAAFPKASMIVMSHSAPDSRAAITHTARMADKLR

molecular target: Metallo-beta-lactamase type 2 (Klebsiella pneumoniae) (UniProt C7C422); experiment: qHTS to identify inhibitors of the New Delhi Metallo-beta-lactamase (NDM): primary screen against the NCATS Gemini Collection; conditions: NDM-1 enzyme, meropenem hydrolysis, absorbance 300 nm; at 38.4 µM (top of the series) unless noted; further: % of control where 0% means no effect
How it was run: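 NDM-1 at 2 nM final in 50 mM HEPES pH 7.0, 1 uM ZnSO4, 0.01% Tween20, preincubated >30 min with compound. Meropenem 50 uM final added; absorbance at 300 nm after 30 min.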

SMILES	activity % (negative = inhibition)
O=C(COc1ccccc1)N1CCC(OCc2ccccc2)C1 (stereo not drawn)	inactive: -0.789%
O=C(Cc1ccc(Cl)cc1)N1CCc2c(nc3cc[nH]n3c2=O)C1	inactive: 1.76%
O=C(c1ccc(-c2cccc(O)c2)nc1)N1CCCN(c2ncccn2)CC1	inactive: 37.1%
CN1CCN(c2cc(=O)c3ccnc(Nc4ccc(F)c(Cl)c4)c3o2)CC1	inactive: 18.7% [at 57.5 µM]
COCCNc1cc(-c2noc([C@@H]3CCCN3CC(C)C)n2)ccn1	inactive: -1.56% [at 57.5 µM]
O=C(NCc1ccc(F)cc1)N1CCC(OC2CCN(Cc3ccccc3)CC2)CC1	inactive: 20.5%
COc1ccc(C2=NOC3(CCN(Cc4cccn4C)C3)C2)cc1 (stereo not drawn)	inactive: 14.6% [at 57.5 µM]
Cc1ocnc1C(=O)N1CCC2(CCCN(CCCc3ccccc3)C2=O)C1 (stereo not drawn)	inactive: -1.64%
O=C(N[C@H]1CO[C@H]2[C@@H]1OC[C@@H]2n1nnnc1Oc1ccc(-n2ccnc2)cc1)c1ccccc1	inactive: -0.35%
CC(C)NC(=O)c1onc(-c2ccc(Cl)cc2)c1[C@H](C)O	inactive: 0.697% [at 57.5 µM]
O=C(c1ccc(CN2C(=O)NC3(CCOCC3)C2=O)cc1)N1CCc2ccccc2C1	inactive: 15.1%
COC1CCOC2(CCN(C(=O)CCc3nc4ccccc4s3)CC2)C1 (stereo not drawn)	inactive: 18.8%
O=C(Cc1ccccn1)N1CCN(C(=O)c2cccc(-c3ccccn3)c2)CC1	inactive: 1.66%
Cc1ccc(Nc2ccnc(N3CCCN([S+](=O)([O-])c4ccc(C)cc4)C3)n2)cc1	inactive: 2.36%
CC1=C(C(=O)OC(C)C)C(c2ccccc2Cl)CC(=O)N1Cc1c(F)cccc1F (stereo not drawn)	inactive: -2.2%
O=C(N[C@@H]1CN(Cc2ccccc2)C[C@H]1CO)c1cccnc1	inactive: -2.83%
COCCOCc1nc(C2CCCCN2C(=O)NCc2ccc(F)cc2)no1 (stereo not drawn)	inactive: 0.427%
COCC1(CNCc2c(C)noc2C)C[C@@H](O)[C@@H](O)C1 (stereo partly drawn)	inactive: 17.6% [at 77.1 µM]
Cc1ccc(CN2CCCC(C(=O)N3CCN(c4ccccn4)CC3)CCNC(=O)CC2)s1 (stereo not drawn)	inactive: 3.61%
OCC1(CCCc2ccccc2)CCN(Cc2cccc3c2OCO3)CC1	inactive: 9.09%
Cn1ncc(N2CCC(CNC(=O)c3cccc4ccnn34)C2)cc1=O (stereo not drawn)	inactive: 6.77%
O=C(O)C[C@@H]1CCN(S(=O)(=O)c2ccccc2)C[C@@H]1CCN(CCN1CCOCC1)c1ccccc1	inactive: -9.15%
CC(C)n1ccnc1CN1CCC2(CCCO2)CCC1=O (stereo not drawn)	inactive: -4.83%
CCn1cc(CN2C[C@@H]3C(=O)N(CCCN4CCCC4=O)C(=O)[C@@H]3C2)cn1	inactive: -1.86%
Cc1cccc(C(=O)N2CCC(c3nc(-c4cccn4C)no3)C2)c1 (stereo not drawn)	inactive: 3.93%
O=C(O)c1ccc(C2CCCN(C(=O)c3cccc(N4CCOCC4)c3)C2)cc1 (stereo not drawn)	inactive: 4.4%
COCCNC(=O)c1ccc2oc(-c3ccncc3Cl)nc2c1	inactive: 38.1% [at 57.5 µM]

Ordered by length of the SMILES (descending): part of the list above.
SMILES	activity % (negative = inhibition)
COCC1(CNCc2c(C)noc2C)C[C@@H](O)[C@@H](O)C1 (stereo partly drawn)	inactive: 17.6% [at 77.1 µM]
COC1CCOC2(CCN(C(=O)CCc3nc4ccccc4s3)CC2)C1 (stereo not drawn)	inactive: 18.8%
O=C(COc1ccccc1)N1CCC(OCc2ccccc2)C1 (stereo not drawn)	inactive: -0.789%

Next part

SMILES	activity % (negative = inhibition)
O=C(O)CCC(=O)N1Cc2[nH]cnc2C[C@H]1c1nc(-c2ccc(OC(F)(F)F)cc2)no1	inactive: -0.651%
CCc1cc(=O)[nH]c(N2CCOCC2)n1	inactive: -0.476%
COc1ccc(C(=O)N2CCCC2)c(OC2CCN(C(=O)C3C=CCN3)CC2)c1 (stereo not drawn)	inactive: 0.195%
c1ccc(C2=NOC3(CCCN(CC4CCCC4)C3)C2)cc1 (stereo not drawn)	inactive: -1.66% [at 57.5 µM]
COCCNC(=O)CN1C(=O)NC(c2cccs2)C2=C1COC2=O (stereo not drawn)	inactive: 0.454%
CC(C)c1cc(C2CCN(Cc3cn[nH]c3-c3ccccc3)CC2)[nH]n1	inactive: -1.79%
CC1CCCN(C(=O)CN2CCCc3nc(-c4ccccc4)ncc3C2=O)C1 (stereo not drawn)	inactive: 12.2%
COc1cncc(NC(=O)C2=NO[C@@H]3CN(Cc4ccccc4)C[C@H]23)c1	inactive: 13.6% [at 57.5 µM]
CNCc1cn(C2CCN(Cc3c(OC)ccc(F)c3F)CC2)nn1	inactive: -5.93%
O=c1cc(-c2cnccn2)oc2c(Nc3cccc(OC(F)(F)F)c3)nccc12	inactive: 5.49% [at 57.5 µM]
C=CCC1(C(=O)O)CCCN(C(=O)Cc2c[nH]c(=O)n(C)c2=O)C1 (stereo not drawn)	inactive: -9.59%
CNC(=O)[C@@H]1CN(C(=O)c2ccoc2C)C[C@H]1c1nc(C)no1	inactive: 6.64%
CS(=O)(=O)N1CCC2(CC1)CN(C(=O)c1ccc(Cl)cc1)CCO2	inactive: 17.5%
CCc1ncc2c(N3CC4CCC(C3)N4CC(F)(F)F)nc3ccccc3n12	inactive: 6.17%
CCc1nc(-c2ccc(OC3CCN(C(=O)Cc4c[nH]c5ccccc45)C3)cc2)no1 (stereo not drawn)	inactive: 12.3%
CN1c2cc(C(=O)N3CCN(c4ccccn4)CC3)ccc2C(=O)N2CCCCC21 (stereo not drawn)	inactive: 0.413%
COCc1ccc2c(c1)c(OC(C)(C)C(=O)N1CCN(C)CC1)nn2Cc1ccccc1	inactive: -0.183% [at 57.5 µM]
CC(=O)Nc1ccc(S(=O)(=O)N2C[C@@H]3C[C@H](C2)c2c(-c4ccc(OC(F)(F)F)cc4)ccc(=O)n2C3)cc1	inactive: 6.11%
COc1cccc(C(=O)N(C)Cc2ccccc2C(F)(F)F)c1	inactive: -4.85% [at 57.5 µM]
CC(C)C(Oc1ccccc1)C(=O)N1CCc2c(ncnc2N(C)C)C1 (stereo not drawn)	inactive: 21.6%
O=Cc1ccc(N2CCN([S+](=O)([O-])C3CC3)CC2=O)cc1	inactive: 5.58%
CN1CCC[C@H]1c1nc(-c2ccc(F)cn2)no1	inactive: 10.1% [at 77.1 µM]
O=c1[nH]c(-c2ccc(F)cc2)nc2c1CCN(S(=O)(=O)c1cccs1)C2	inactive: -0.234%
COc1ccccc1NC(=O)Nc1ccc2n(c1=O)C[C@H]1C[C@@H]2CN(C(=O)Cc2cccs2)C1	inactive: -1.46%
Cn1c(C(=O)N2CCN(c3ccccn3)CC2)nc2nc(-c3ccccc3)c(Cl)cc21	inactive: 10.1% [at 57.5 µM]
COCC(=O)N1CC(C(=O)NCc2ccncc2)C2(CCOCC2)C1 (stereo not drawn)	inactive: -9.81%
